The values that follow come from article PMC7862700.

The entries are a selection whose mix differs from that of the whole data set. At the low end of the ranking, values are background and their order means little.

The experiment deals with SPI1 (UniProt P17947). The experiment in a line: DAPPL (digital affinity profiling via proximity ligation, sequencing). Particulars: 10 mM Tris-HCl pH 7.5, 50 mM NaCl, 1 mM DTT, 4% glycerol, room temperature, 30 min; GST-TFs on glutathione beads, 16-mer random dsDNA library, 0.1% …; high values mean tight binding; double strand, one strand shown; scale: fold enrichment (6-mer frequency, TF over GST control).
TCGCTG returned a binding signal of 0.972. CTTGTA yielded a binding signal of 1.39. The figure for TCCTGA is 1.47; for TTGGAT it is 0.918.

For TCCTAG, the binding signal amounted to 1.12. In the case of AGAACC it was 0.871; in that of GATTCG, 0.983; in that of TAGAAC, 0.98. As for TCAAAC, the binding signal stood at 1.16.

CCAATA had a binding signal of 1.2. For ACAACA, the binding signal worked out at 1.18. As to TCTTGG, the binding signal came out at 1.35.

In the case of AGTAAC, the binding signal was determined as 1.07. GCCTGG displayed a binding signal of 0.878. CACCGC returned a binding signal of 1.01. TCGACG yielded a binding signal of 0.982.

With CTACTG, the binding signal amounted to 1.23. With ATCGAC, the binding signal turned out to be 1.15.

GCGTTA: the binding signal is 0.96. The figure for CAAATG is 1.25; for CAGCGC it is 0.912. Consider CCGGTT, for which the binding signal was 2.11. Turning to TGATTA, the binding signal was found to be 0.985.

As for AGCAGA, the binding signal was 0.994. In the case of CCAAAG, the binding signal turned out to be 0.983. In the case of GCGATT, the binding signal was found to be 0.977.

Sequence TGCGTT returned a binding signal of 1.1. The figure for GAATGG is 0.98; for TGTCTA it is 1.09; for TTGAGA it is 0.821. For GCGACG, the binding signal came to 0.831. Sequence ATTATA had a binding signal of 1.2. On to TGGTCG, for which the binding signal stood at 0.996.

GCCGGA displayed a binding signal of 0.935.

Turning to CCGGTC, the binding signal was 1.01. Sequence GAATGC displayed a binding signal of 0.949. Turning to GGTAAA, the binding signal was 1.04. GCCCGG: the binding signal was determined as 0.904. For GTTGAA, the binding signal worked out at 0.854.
